The results in this text go back to PubChem BioAssay AID1487 (National Center for Advancing Translational Sciences (NCATS), 2009).

The list shows a part of the results. The main result of the screen is listed elsewhere. These columns were measured beside it and carry no call. Compounds called inactive in the main read-out are mostly missing here. Potencies come from curve fits of mixed quality, noted in brackets.

This experiment is described as follows: qHTS Assay for Modulators of Lamin A Splicing. Conditions: HeLa LMNA splicing GFP/RFP minigene ratio, 48 h. The gist of the method: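 S3 HeLa stable clones carrying a lamin A-EGFP splicing minigene plus DsRed2 were seeded at 600 cells/well in Opti-MEM with 2% FBS, pin-dosed and incubated 48 h at 37°C. Acumen cytometry (488 nm) gave the GFP/RFP total-intensity ratio.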
Background: Quantitative high-throughput screening tests each substance at several concentrations.

The mark [1] stands for this setting: measured here: GFP splicing reporter channel.
The mark [2] stands for this setting: measured here: RFP viability control channel.

The term AC50 denotes the midpoint of the concentration-response curve, whichever way the signal moves. In the case of `CC1CCCN(CCCNC(=O)c2ccc3c(c2)N(Cc2cccc(Cl)c2)C(=O)c2ccccc2S3(=O)=O)C1` (configuration not stated), the AC50 is 12.6 µM [rising, partial curve, poor fit] under setting [1] and 35.5 µM [rising, single point] under setting [2]. Regarding `O=[N+]([O-])c1cccc(-c2csc(Nc3ccccc3)n2)c1`, the AC50 under setting [1] was 0.891 µM [falling, full curve]. In the case of `CCCc1cc(C(=O)Nc2sc3c(c2C#N)CCC3)no1`, under setting [2], the AC50 is 31.6 µM [rising, single point].

With `CCC(CC)C(=O)N1CCN(c2cccc(C)c2C)CC1`, the AC50 under setting [2] was 35.5 µM [rising, single point]. Same read-out and setting: to `Cc1cc(C)cc(-n2nnnc2SCC(=O)Nc2nc(-c3ccc(F)cc3)cs2)c1` belongs 0.355 µM [falling, single point]. Take `Clc1ccc(-c2nc3ccccc3nc2-c2ccccc2)cc1`: the AC50 runs as follows: under setting [1], 11.2 µM [rising, partial curve]; under setting [2], 15.8 µM [rising, partial curve]. As for `O=C(NCCN1C(=O)S/C(=C\c2ccc(F)cc2)C1=O)c1cccc(S(=O)(=O)N2CCOCC2)c1`, the AC50 under setting [2] is 8.91 µM [rising, partial curve, poor fit].

With `O=C(NN1C(=O)c2ccccc2C1=O)C1C2CCCCC21` (configuration not stated), the AC50 under setting [2] is 35.5 µM [rising, single point].

As to `O=S(=O)(c1cccc(-c2nc3ccccc3s2)c1)N1CCOCC1`, the AC50 reads like this: under setting [1], 22.4 µM [rising, single point]; under setting [2], 25.1 µM [rising, single point]. Regarding `Cc1cc(C2(c3ccc(O)c(C)c3)C(=O)Nc3ccccc32)ccc1O`, the AC50 was 22.4 µM [falling, single point] under setting [1] and 35.5 µM [falling, single point] under setting [2]. As for `COc1cccc(-n2sc3c(c2=S)-c2cc(OC)ccc2NC3(C)C)c1`, under setting [2], the AC50 was 0.0126 µM [falling, full curve].

For `CC(O)C(N)C(=O)O` (configuration not stated), the half-maximal activity concentration (AC50) under setting [2] is 35.5 µM [rising, single point]. With `CC[n+]1c(S(=O)(=O)[O-])ccc2ccc(C)cc21`, the half-maximal activity concentration (AC50) under setting [2] was 0.2 µM [falling, full curve, poor fit]. As to `NC(=O)C1CCN(S(=O)(=O)Cc2ccccc2Cl)CC1`, the concentration at half-maximal activity (AC50) is 14.1 µM [falling, partial curve, poor fit] under setting [1] and 5.01 µM [falling, partial curve] under setting [2].

Turning to `Cc1cnc(NC(=O)c2cc3c(s2)CCCC3)s1`, the AC50 was 14.1 µM [rising, single point] under setting [1] and 14.1 µM [rising, single point] under setting [2]. Consider `COCC(=O)NNC(=O)c1ccccc1OC`, for which the AC50 under setting [2] was 17.8 µM [rising, single point]. With `CN1CCC(=C2c3ccccc3CCc3sccc32)CC1`, the half-maximal activity concentration (AC50) is, setting by setting: under setting [1], 0.00316 µM [falling, full curve, poor fit]; under setting [2], 14.1 µM [falling, partial curve, poor fit]. For `CC1CCC(N2CC(=O)N(C3CCCCC3)C(c3ccc(Cl)cc3)C2=O)CC1` (configuration not stated), the AC50 is 0.501 µM [rising, full curve, poor fit] under setting [1] and 0.562 µM [rising, full curve, poor fit] under setting [2]. For the molecule `CCc1ccc(OCCCOc2ccc(C=O)cc2)cc1`, the AC50 under setting [1] was 7.08 µM [rising, partial curve] and the concentration at half-maximal activity (AC50) under setting [2] is 7.08 µM [rising, partial curve]. As for `COc1cccc(C(=O)Nc2nc3ccc(S(=O)(=O)N4CCCC4)cc3s2)c1`, the AC50 by setting is: under setting [1], 1.12 µM [rising, full curve]; under setting [2], 1.58 µM [rising, partial curve, poor fit]. For the molecule `Brc1ccc(C2CC(c3ccccc3)=Nc3ccccc3N2)cc1` (configuration not stated), the concentration at half-maximal activity (AC50) under setting [2] was 12.6 µM [rising, single point]. Still for that read-out and setting: in the case of `Cc1ccc(NS(=O)(=O)c2ccc(-c3cnc(C4CC4)o3)cc2)cc1N(C)C` it was 1.58 µM [rising, full curve]. As for `CCOC(=O)c1nn(-c2cccc(C)c2)c2nc(-c3ccccc3)c(C#N)c(=O)n12`, under setting [1], the half-maximal activity concentration (AC50) is 35.5 µM [rising, single point]. The same measure, in the same setting: in the case of `CCOc1ccccc1CNC(=O)CCc1c(C)nn(-c2ccc(N3CCCCC3)nn2)c1C` it was 14.1 µM [falling, single point]. Turning to `CC(C)(C)C1CCc2onc(C(=O)NCc3ccc(F)cc3)c2C1` (configuration not stated), the AC50 was 12.6 µM [rising, partial curve, poor fit] under setting [1] and 15.8 µM [rising, single point] under setting [2]. As to `O=C(COc1ccc(NC(=O)c2ccccc2[N+](=O)[O-])cc1)c1ccc(F)cc1`, the concentration at half-maximal activity (AC50) by setting is: under setting [1], 3.16 µM [rising, single point]; under setting [2], 0.0708 µM [falling, full curve, poor fit]. In the case of `Cc1ccccc1NC(=O)c1cn(-c2ccccc2)nc1-c1ccccc1`, the AC50 under setting [2] is 10 µM [rising, partial curve, poor fit]. `Cc1cnc(CNc2ncnc3ccc(-c4ccccc4Cl)cc23)cn1`: the AC50 under setting [2] was 12.6 µM [falling, single point]. Still for that read-out and setting: to `COc1cc(C(=S)N2CCOCC2)ccc1OS(=O)(=O)c1ccc(NC(C)=O)cc1` belongs 7.94 µM [rising, partial curve]. Turning to `CCN(CCCNC(=O)CC(C(=O)N1CCc2ccccc21)n1ccnc1)c1cccc(C)c1` (configuration not stated), the half-maximal activity concentration (AC50) under setting [1] was 14.1 µM [rising, single point] and the half-maximal activity concentration (AC50) under setting [2] was 22.4 µM [rising, single point]. In the case of `COc1cc(/C=C/c2nc(N)nc(-c3ccccc3O)n2)cc(OC)c1OC`, the AC50 under setting [2] is 12.6 µM [rising, partial curve]. Same read-out and setting: in the case of `Cc1cc(NC(=O)CN2C(=O)NC3(CCCCC3C)C2=O)no1` (configuration not stated) it was 0.0316 µM [falling, full curve, poor fit].

For `O=[N+]([O-])c1nn(-c2ccc3c(c2)OCCO3)n(O)c1=NCCC1=CCCCC1`, the AC50 under setting [1] is 10 µM [rising, partial curve]. `Cc1ccc(SCCC(=O)NCc2ccncc2)cc1`: the concentration at half-maximal activity (AC50) under setting [2] was 39.8 µM [falling, partial curve, poor fit]. Turning to `CC(=O)Nc1c(C)nn(-c2ccccc2)c1N1CCC(C(=O)NCc2cccc(Cl)c2)CC1`, the AC50 under setting [1] is 3.16 µM [rising, full curve, poor fit]. As for `Cc1ccc(/C=C(\C#N)c2nc3ccccc3[nH]2)s1`, under setting [2], the AC50 was 31.6 µM [rising, single point].

As to `COC(=O)C1Cc2ccccc2CN1C(=O)CCl` (configuration not stated), under setting [2], the half-maximal activity concentration (AC50) was 35.5 µM [falling, single point]. Take `O=C(CSc1nc2cc3ccccc3cc2[nH]1)Nc1ccc(F)cc1`: the half-maximal activity concentration (AC50) runs as follows: under setting [1], 8.91 µM [rising, partial curve]; under setting [2], 11.2 µM [rising, partial curve]. Regarding `CC(Cc1cccs1)NC(=S)Nc1ccc(Cl)c(Cl)c1` (configuration not stated), the AC50 is, setting by setting: under setting [1], 35.5 µM [rising, single point]; under setting [2], 35.5 µM [rising, single point]. In the case of `Cc1onc(-c2ccccc2Cl)c1C(=O)N1CCN(c2nc3ccccc3s2)CC1`, the AC50 runs as follows: under setting [1], 8.91 µM [rising, partial curve]; under setting [2], 6.31 µM [rising, partial curve]. With `OCC[n+]1ccc(/C=C/c2c[nH]c3ccccc23)cc1`, the half-maximal activity concentration (AC50) under setting [2] was 15.8 µM [rising, single point]. The same measure, in the same setting: to `COC(=O)c1ccc(COc2cccc3c2CCN(Cc2cccc(C)c2)C3=O)o1` belongs 17.8 µM [rising, single point]; to `COc1ccc(NS(=O)(=O)c2cc(C)ccc2C)cc1`, 20 µM [rising, single point]. Same read-out and setting: to `Cc1cc(C)nc(/N=C(\N)N2CCCCC2)n1` belongs 2.24 µM [falling, full curve, poor fit].

Take `CC1CCc2onc(C(=O)N3CCN(c4ccc(F)cc4)CC3)c2C1` (configuration not stated): the concentration at half-maximal activity (AC50) under setting [2] was 0.0282 µM [falling, full curve, poor fit].

For `CCCN(CCC)C(=O)c1cc(-c2ccc3c(c2)OCO3)nc2ccccc12`, the AC50 was 22.4 µM [rising, single point] under setting [1] and 22.4 µM [rising, single point] under setting [2]. Turning to `Cc1sc2nc(C3CC3)nc(SCC(=O)NCc3ccco3)c2c1C`, the concentration at half-maximal activity (AC50) under setting [1] is 11.2 µM [rising, partial curve]. For the molecule `Cc1cccc(CNc2ncnc3ccc(-c4cccc(C#N)c4)cc23)c1`, the AC50 under setting [1] was 35.5 µM [falling, single point] and the AC50 under setting [2] is 25.1 µM [falling, partial curve].

Turning to `Cn1cc(Br)c(C(=O)NN2C(=O)C3C(C2=O)C2C=CC3C23CC3)n1` (configuration not stated), under setting [2], the concentration at half-maximal activity (AC50) was 20 µM [falling, single point]. Regarding `O=C(NCCO)/C(=C\c1ccc2c(c1)OCO2)NC(=O)c1ccc(Br)cc1`, the AC50 under setting [2] was 1.58 µM [rising, partial curve].

Consider `COC(=O)c1ccc(Sc2ccc(Cl)cc2)c(N)c1`, for which the AC50 under setting [1] is 12.6 µM [rising, single point] and the AC50 under setting [2] was 17.8 µM [rising, single point]. For `CCOc1ncccc1C(=O)Nc1cccc(-c2nnc3n2CCCCC3)c1`, the AC50 under setting [1] is 35.5 µM [falling, single point].

Consider `Cc1ccc(-n2ncc3c(N(C)C)ncnc32)cc1Cl`, for which the AC50 under setting [2] is 0.178 µM [falling, full curve, poor fit]. Same read-out and setting: in the case of `Cc1cccc2sc(NNC(=O)c3cc(-c4cccs4)nc4ccccc34)nc12` it was 3.55 µM [rising, partial curve]. Take `COc1ccccc1Oc1nc(-c2ccccc2)cc(C)c1S(C)(=O)=O`: the AC50 was 31.6 µM [rising, single point] under setting [1] and 31.6 µM [rising, single point] under setting [2].

Regarding `CCCc1cc(-c2n[nH]c(=S)n2CC)c2ccccc2n1`, under setting [1], the concentration at half-maximal activity (AC50) is 17.8 µM [rising, single point]. Take `COc1ccc(S(=O)(=O)Nc2ccc3c(c2)OCCO3)cc1Cl`: the AC50 under setting [2] was 22.4 µM [rising, single point].
